From paper PMC12331947, “Activation of AKT via a dual mechanism enhances the susceptibility of melanoma cells to glucose deprivation” (Cell Death & Disease, 2025)
These are yes or no findings as the source states them, for the method shown. For some of these results: Binding seen in cells or lysates may run through a third protein. Some results given as binding are weak or reduced against the parent protein; the word gives no strength. For some of these results: Where a sequence is shown, tags or fusion partners need not be part of it.

Chains of the proteins cited; added tags and fusions are not shown.
UniProt Q9Y243: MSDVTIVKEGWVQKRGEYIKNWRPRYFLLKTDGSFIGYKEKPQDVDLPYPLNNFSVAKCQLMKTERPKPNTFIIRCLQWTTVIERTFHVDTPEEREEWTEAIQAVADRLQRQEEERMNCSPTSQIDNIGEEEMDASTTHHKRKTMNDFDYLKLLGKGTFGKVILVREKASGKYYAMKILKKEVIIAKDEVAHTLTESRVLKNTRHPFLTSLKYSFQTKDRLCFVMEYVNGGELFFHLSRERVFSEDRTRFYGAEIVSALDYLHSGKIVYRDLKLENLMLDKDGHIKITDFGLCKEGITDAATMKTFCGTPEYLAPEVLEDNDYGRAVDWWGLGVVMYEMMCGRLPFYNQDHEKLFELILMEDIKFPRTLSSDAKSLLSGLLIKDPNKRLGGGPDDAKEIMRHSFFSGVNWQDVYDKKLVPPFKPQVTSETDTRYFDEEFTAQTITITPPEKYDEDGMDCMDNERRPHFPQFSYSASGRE

How the values were obtained:
[1] = biological target: T1, PDK1 (exogenous, HA- or Flag-tagged) (human), O15530; experiment: co-IP; PDK1-HA with PDK1-Flag in A375 cells, glucose-free medium for 3 h, with or without NAC (5 mM) or GSH (2.5 mM); Triton X-100 lysis buffer, protein A/G agarose, 3 h at 4 °C; conditions: remark: other sources report otherwise
T1 chain: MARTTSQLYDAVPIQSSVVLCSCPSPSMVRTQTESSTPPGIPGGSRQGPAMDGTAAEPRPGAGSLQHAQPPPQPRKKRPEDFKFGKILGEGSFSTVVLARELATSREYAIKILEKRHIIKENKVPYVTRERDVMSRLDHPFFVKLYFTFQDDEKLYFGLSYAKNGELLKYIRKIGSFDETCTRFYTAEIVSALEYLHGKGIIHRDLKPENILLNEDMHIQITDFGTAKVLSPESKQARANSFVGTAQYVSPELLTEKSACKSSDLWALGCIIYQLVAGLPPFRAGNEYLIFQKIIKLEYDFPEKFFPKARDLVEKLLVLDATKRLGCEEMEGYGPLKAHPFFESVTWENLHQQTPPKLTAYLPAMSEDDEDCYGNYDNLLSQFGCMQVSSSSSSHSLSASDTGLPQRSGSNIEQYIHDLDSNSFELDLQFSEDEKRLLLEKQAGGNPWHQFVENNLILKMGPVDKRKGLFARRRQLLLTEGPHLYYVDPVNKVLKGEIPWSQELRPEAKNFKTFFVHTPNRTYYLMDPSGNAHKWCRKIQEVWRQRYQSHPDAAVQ

AKT3 (human) = AKT3 (human) (UniProt Q9Y243); experiment: co-IP; PDK1 or PDK1^C21/23S with AKT3, control or glucose-deprived cells; Triton X-100 lysis buffer, protein A/G agarose, 3 h at 4 °C
PDK1^C21/23S (human) [2] = biological target: PDK1^C21/23S (human) (UniProt O15530); experiment: co-IP; PDK1-HA with PDK1-Flag in A375 cells, glucose-free medium for 3 h, with or without NAC (5 mM) or GSH (2.5 mM); Triton X-100 lysis buffer, protein A/G agarose, 3 h at 4 °C
PDK1^C21/23S (human) [3] = biological target: PDK1^C21/23S (human) (UniProt O15530); experiment: non-reducing gel and immunoblot; A375 cells in glucose-free medium for 3 h, with or without NAC (5 mM) or GSH (2.5 mM); PDK1 monomer and dimer bands under non-reducing conditions

B1: PDK1 (exogenous, HA- or Flag-tagged), O15530 1-556 (enzyme)
chain: MARTTSQLYDAVPIQSSVVLCSCPSPSMVRTQTESSTPPGIPGGSRQGPAMDGTAAEPRPGAGSLQHAQPPPQPRKKRPEDFKFGKILGEGSFSTVVLARELATSREYAIKILEKRHIIKENKVPYVTRERDVMSRLDHPFFVKLYFTFQDDEKLYFGLSYAKNGELLKYIRKIGSFDETCTRFYTAEIVSALEYLHGKGIIHRDLKPENILLNEDMHIQITDFGTAKVLSPESKQARANSFVGTAQYVSPELLTEKSACKSSDLWALGCIIYQLVAGLPPFRAGNEYLIFQKIIKLEYDFPEKFFPKARDLVEKLLVLDATKRLGCEEMEGYGPLKAHPFFESVTWENLHQQTPPKLTAYLPAMSEDDEDCYGNYDNLLSQFGCMQVSSSSSSHSLSASDTGLPQRSGSNIEQYIHDLDSNSFELDLQFSEDEKRLLLEKQAGGNPWHQFVENNLILKMGPVDKRKGLFARRRQLLLTEGPHLYYVDPVNKVLKGEIPWSQELRPEAKNFKTFFVHTPNRTYYLMDPSGNAHKWCRKIQEVWRQRYQSHPDAAVQ
For B1, the binding [1] was “binds”.

B2: PDK1 (exogenous, HA- or Flag-tagged) (enzyme, UniProt O15530 1-556)
chain: MARTTSQLYDAVPIQSSVVLCSCPSPSMVRTQTESSTPPGIPGGSRQGPAMDGTAAEPRPGAGSLQHAQPPPQPRKKRPEDFKFGKILGEGSFSTVVLARELATSREYAIKILEKRHIIKENKVPYVTRERDVMSRLDHPFFVKLYFTFQDDEKLYFGLSYAKNGELLKYIRKIGSFDETCTRFYTAEIVSALEYLHGKGIIHRDLKPENILLNEDMHIQITDFGTAKVLSPESKQARANSFVGTAQYVSPELLTEKSACKSSDLWALGCIIYQLVAGLPPFRAGNEYLIFQKIIKLEYDFPEKFFPKARDLVEKLLVLDATKRLGCEEMEGYGPLKAHPFFESVTWENLHQQTPPKLTAYLPAMSEDDEDCYGNYDNLLSQFGCMQVSSSSSSHSLSASDTGLPQRSGSNIEQYIHDLDSNSFELDLQFSEDEKRLLLEKQAGGNPWHQFVENNLILKMGPVDKRKGLFARRRQLLLTEGPHLYYVDPVNKVLKGEIPWSQELRPEAKNFKTFFVHTPNRTYYLMDPSGNAHKWCRKIQEVWRQRYQSHPDAAVQ
In the case of B2, the binding (AKT3 (human)) is reported as “binds”.

B3: PDK1^C21/23S (enzyme, UniProt O15530 1-556)
chain: MARTTSQLYDAVPIQSSVVLSSSPSPSMVRTQTESSTPPGIPGGSRQGPAMDGTAAEPRPGAGSLQHAQPPPQPRKKRPEDFKFGKILGEGSFSTVVLARELATSREYAIKILEKRHIIKENKVPYVTRERDVMSRLDHPFFVKLYFTFQDDEKLYFGLSYAKNGELLKYIRKIGSFDETCTRFYTAEIVSALEYLHGKGIIHRDLKPENILLNEDMHIQITDFGTAKVLSPESKQARANSFVGTAQYVSPELLTEKSACKSSDLWALGCIIYQLVAGLPPFRAGNEYLIFQKIIKLEYDFPEKFFPKARDLVEKLLVLDATKRLGCEEMEGYGPLKAHPFFESVTWENLHQQTPPKLTAYLPAMSEDDEDCYGNYDNLLSQFGCMQVSSSSSSHSLSASDTGLPQRSGSNIEQYIHDLDSNSFELDLQFSEDEKRLLLEKQAGGNPWHQFVENNLILKMGPVDKRKGLFARRRQLLLTEGPHLYYVDPVNKVLKGEIPWSQELRPEAKNFKTFFVHTPNRTYYLMDPSGNAHKWCRKIQEVWRQRYQSHPDAAVQ
With B3 the binding (PDK1^C21/23S (human) [2]) was “no binding” and the binding (PDK1^C21/23S (human) [3]) was “no binding”.
